Literature values, collected in patent US8765060B2, “Chemical sensor” (Regents of the University of Minnesota, priority 2005, dated 2014).

Settings: physiological concentrations; creatininium ion exchanger ISE; cited from earlier work

Molecule	emf response / drift caused by the compound
CC(C)CCC[C@@H](C)[C@H]1CC[C@H]2[C@@H]3CC=C4C[C@@H](O)CC[C@]4(C)[C@H]3CC[C@]12C [cholesterol]	no significant emf responses
CC1=C(CCC(=O)O)c2cc3nc(cc4[nH]c(cc5[nH]c(cc1n2)c(C)c5CCC(=O)O)c(CCC(=O)O)c4C)C(CCC(=O)O)=C3C [coproporphyrin]	positive emf drifts
CCCCCCCC(=O)O [octanoic acid]	positive emf drifts
C[C@H](CCC(=O)NCCS(=O)(=O)O)[C@H]1CC[C@H]2[C@@H]3[C@H](O)C[C@@H]4C[C@H](O)CC[C@]4(C)[C@H]3C[C@H](O)[C@]12C [taurocholic acid]	positive emf drifts
phosphatidylethanolamine	positive emf drifts
phosphatidylserine	positive emf drifts
